Assay results: patent US20250215015A1, “COMPOSITIONS OF STAUROSPORINE ANALOGS AND USES THEREOF” (THE REGENTS OF THE UNIVERSITY OF CALIFORNIA, priority 2022, published 2025)
pIC50: −log10 of the molar value.

How the values were obtained:
[1] = Toxicity in mice: body weight and liver enzymes; type: in vivo; details: 0.8 mg/kg 3 times per week for two weeks
From the text: Weight declined with STS but not PBS or LSTS. Bottom panel is bar graph depicting liver enzymes ALT/AST before and after treatment. For free STS the post treatment levels were flagged as abnormal (stars). ALT/AST enzyme levels were normal with empty liposomes (control) and LSTS. Reference levels shown by dashed lines.

caspase 3/7 = experiment: Apo-one caspase 3/7 assay; type: cell-based; details: U87 cells, 12 hours, 200 nM
From the text: FIG. 5A: Western blot analysis for Akt, P-Akt, cleaved PARP. […] Representative blot from two independent experiments is shown.

[2] = test system: established and primary GBM lines, and breast and prostate cell lines; experiment: Cell killing by free and liposomal STS; type: cell-based; details: range over GBM
Protocol: The IC50 values ranged from 1-5 nM and were very close between free and liposomal STS.

Structure (SMILES): CN[C@@H]1C[C@H]2O[C@@](C)([C@@H]1OC)n1c3ccccc3c3c4c(c5c6ccccc6n2c5c31)C(=O)NC4 [STS, Staurosporine]
- AST/ALT liver enzymes [1]: elevated
- caspase 3/7 activity (caspase 3/7): increased caspase 3/7 activity
- pIC50 [2]: 8.30 to 9.00
